{"sequences": {"note": "Protein sequences, listed by entry. Tags and fused reporters are not part of them. Lines headed by an entry give the natural chain unless they say otherwise; changes in a name come on top. Chains listed by the source or under a name are the forms on record and can include a tag or linker.", "UniProt P32639": "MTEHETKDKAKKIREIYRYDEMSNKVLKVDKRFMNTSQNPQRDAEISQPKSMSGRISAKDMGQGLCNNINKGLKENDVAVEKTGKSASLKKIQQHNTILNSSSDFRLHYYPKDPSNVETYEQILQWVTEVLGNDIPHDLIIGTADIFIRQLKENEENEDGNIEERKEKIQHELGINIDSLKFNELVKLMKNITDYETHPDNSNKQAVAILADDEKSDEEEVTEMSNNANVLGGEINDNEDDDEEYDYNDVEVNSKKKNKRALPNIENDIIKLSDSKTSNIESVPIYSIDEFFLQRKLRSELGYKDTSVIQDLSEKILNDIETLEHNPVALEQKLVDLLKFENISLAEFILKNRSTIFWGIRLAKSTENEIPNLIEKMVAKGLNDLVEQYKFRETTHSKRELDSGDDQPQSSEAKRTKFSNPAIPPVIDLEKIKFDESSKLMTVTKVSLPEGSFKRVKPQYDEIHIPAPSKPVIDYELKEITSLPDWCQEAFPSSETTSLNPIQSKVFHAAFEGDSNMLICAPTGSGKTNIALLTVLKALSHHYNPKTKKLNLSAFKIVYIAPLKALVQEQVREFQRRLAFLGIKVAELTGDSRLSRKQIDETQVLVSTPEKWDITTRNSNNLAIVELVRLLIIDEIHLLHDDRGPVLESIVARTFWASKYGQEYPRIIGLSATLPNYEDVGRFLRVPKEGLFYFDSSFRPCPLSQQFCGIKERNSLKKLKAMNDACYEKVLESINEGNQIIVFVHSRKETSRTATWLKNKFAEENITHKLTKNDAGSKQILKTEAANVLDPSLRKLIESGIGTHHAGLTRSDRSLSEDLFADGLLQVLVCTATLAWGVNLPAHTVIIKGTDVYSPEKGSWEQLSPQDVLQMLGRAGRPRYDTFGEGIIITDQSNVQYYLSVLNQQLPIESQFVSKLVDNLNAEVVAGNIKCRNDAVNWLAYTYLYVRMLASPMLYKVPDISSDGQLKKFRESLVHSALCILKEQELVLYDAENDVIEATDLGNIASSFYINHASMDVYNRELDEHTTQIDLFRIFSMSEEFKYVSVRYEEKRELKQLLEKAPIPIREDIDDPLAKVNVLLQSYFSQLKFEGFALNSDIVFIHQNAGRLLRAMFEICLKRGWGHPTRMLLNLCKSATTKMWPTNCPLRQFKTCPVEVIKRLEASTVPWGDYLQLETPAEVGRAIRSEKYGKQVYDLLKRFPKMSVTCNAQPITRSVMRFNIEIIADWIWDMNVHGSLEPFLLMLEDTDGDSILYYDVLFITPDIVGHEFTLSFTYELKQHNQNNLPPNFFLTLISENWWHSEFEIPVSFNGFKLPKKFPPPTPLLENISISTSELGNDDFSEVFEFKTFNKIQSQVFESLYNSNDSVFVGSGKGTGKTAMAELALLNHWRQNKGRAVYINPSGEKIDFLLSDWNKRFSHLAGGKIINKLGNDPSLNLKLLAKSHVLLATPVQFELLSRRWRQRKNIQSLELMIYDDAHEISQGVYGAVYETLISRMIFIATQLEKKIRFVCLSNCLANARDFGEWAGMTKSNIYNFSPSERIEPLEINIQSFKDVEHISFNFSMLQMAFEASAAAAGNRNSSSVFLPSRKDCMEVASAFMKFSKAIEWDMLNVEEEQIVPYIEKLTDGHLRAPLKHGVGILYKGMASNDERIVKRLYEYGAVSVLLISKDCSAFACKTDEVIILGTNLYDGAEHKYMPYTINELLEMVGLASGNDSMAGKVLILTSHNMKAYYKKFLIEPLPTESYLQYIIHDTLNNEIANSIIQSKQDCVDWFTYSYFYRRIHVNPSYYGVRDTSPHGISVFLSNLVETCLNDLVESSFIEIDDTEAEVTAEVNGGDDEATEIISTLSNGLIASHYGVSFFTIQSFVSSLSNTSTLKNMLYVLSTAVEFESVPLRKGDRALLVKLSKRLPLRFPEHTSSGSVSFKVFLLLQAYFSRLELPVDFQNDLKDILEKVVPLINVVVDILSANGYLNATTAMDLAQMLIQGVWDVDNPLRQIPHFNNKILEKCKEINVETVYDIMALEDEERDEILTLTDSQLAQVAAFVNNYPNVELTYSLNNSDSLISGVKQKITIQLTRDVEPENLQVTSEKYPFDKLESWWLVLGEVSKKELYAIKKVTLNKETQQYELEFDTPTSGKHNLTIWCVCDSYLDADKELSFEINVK", "polyoma-tagged Brr2-Δ120 (P32639, form named)": "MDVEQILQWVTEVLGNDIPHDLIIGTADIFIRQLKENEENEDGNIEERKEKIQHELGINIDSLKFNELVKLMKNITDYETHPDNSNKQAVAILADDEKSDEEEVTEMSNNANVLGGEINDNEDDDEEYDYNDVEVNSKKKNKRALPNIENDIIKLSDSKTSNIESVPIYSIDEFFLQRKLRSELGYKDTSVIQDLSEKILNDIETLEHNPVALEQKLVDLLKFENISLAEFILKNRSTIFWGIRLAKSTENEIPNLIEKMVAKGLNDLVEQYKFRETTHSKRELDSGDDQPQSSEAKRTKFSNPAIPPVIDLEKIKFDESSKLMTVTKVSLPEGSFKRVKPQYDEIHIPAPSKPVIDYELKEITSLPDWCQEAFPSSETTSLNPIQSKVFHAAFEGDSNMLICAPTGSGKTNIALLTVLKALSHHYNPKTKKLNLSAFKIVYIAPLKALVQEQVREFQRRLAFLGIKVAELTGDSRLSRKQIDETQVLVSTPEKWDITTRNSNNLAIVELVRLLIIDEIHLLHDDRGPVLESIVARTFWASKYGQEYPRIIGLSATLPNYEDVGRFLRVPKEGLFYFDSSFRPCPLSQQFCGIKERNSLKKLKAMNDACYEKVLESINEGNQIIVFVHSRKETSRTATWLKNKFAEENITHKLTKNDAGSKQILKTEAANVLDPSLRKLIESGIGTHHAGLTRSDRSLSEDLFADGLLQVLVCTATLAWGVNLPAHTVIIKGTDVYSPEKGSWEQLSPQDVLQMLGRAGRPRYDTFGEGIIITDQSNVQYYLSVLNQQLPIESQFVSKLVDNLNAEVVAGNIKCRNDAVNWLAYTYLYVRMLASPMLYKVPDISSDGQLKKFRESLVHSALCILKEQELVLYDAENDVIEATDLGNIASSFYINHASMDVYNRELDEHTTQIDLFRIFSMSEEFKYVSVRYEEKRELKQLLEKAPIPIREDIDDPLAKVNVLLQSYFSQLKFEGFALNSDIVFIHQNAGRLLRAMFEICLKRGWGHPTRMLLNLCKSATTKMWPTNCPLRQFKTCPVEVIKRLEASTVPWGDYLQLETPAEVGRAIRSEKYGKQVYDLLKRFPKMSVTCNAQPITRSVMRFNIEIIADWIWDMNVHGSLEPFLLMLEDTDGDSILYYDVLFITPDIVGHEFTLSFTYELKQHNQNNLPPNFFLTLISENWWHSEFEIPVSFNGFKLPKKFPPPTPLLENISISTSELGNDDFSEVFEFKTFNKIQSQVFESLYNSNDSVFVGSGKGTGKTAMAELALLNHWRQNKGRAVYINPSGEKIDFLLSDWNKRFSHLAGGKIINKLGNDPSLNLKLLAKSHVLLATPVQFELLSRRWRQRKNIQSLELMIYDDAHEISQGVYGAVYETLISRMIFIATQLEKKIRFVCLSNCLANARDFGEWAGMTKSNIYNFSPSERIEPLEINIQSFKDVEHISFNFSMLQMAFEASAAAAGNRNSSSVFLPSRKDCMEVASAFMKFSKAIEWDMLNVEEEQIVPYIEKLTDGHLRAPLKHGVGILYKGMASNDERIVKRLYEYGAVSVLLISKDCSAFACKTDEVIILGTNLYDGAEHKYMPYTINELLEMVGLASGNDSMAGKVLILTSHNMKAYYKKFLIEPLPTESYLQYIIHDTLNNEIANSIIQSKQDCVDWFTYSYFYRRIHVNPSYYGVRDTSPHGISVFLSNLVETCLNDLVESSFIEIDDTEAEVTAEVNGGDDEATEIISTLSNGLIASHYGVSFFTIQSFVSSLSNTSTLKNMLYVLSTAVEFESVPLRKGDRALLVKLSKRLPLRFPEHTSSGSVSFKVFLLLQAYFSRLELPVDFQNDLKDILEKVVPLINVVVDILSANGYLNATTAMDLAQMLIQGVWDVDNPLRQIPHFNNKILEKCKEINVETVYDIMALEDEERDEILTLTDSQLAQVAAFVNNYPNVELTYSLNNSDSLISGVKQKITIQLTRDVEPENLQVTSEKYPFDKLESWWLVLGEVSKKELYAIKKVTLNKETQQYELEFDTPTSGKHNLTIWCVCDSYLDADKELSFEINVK"}, "source": "paper PMC4381053", "binders": {"B1": {"name": "Snu114 (protein, UniProt P36048 1-1008)", "chain": "MEGDDLFDEFGNLIGVDPFDSDEEESVLDEQEQYQTNTFEGSGNNNEIESRQLTSLGSKKELGISLEHPYGKEVEVLMETKNTQSPQTPLVEPVTERTKLQEHTIFTQLKKNIPKTRYNRDYMLSMANIPERIINVGVIGPLHSGKTSLMDLLVIDSHKRIPDMSKNVELGWKPLRYLDNLKQEIDRGLSIKLNGSTLLCTDLESKSRMINFLDAPGHVNFMDETAVALAASDLVLIVIDVVEGVTFVVEQLIKQSIKNNVAMCFVINKLDRLILDLKLPPMDAYLKLNHIIANINSFTKGNVFSPIDNNIIFASTKLGFTFTIKEFVSYYYAHSIPSSKIDDFTTRLWGSVYYHKGNFRTKPFENVEKYPTFVEFILIPLYKIFSYALSMEKDKLKNLLRSNFRVNLSQEALQYDPQPFLKHVLQLIFRQQTGLVDAITRCYQPFELFDNKTAHLSIPGKSTPEGTLWAHVLKTVDYGGAEWSLVRIYSGLLKRGDTVRILDTSQSESRQKRQLHDISKTETSNEDEDEDDETPSCEVEEIGLLGGRYVYPVHEAHKGQIVLIKGISSAYIKSATLYSVKSKEDMKQLKFFKPLDYITEAVFKIVLQPLLPRELPKLLDALNKISKYYPGVIIKVEESGEHVILGNGELYMDCLLYDLRASYAKIEIKISDPLTVFSESCSNESFASIPVSNSISRLGEENLPGLSISVAAEPMDSKMIQDLSRNTLGKGQNCLDIDGIMDNPRKLSKILRTEYGWDSLASRNVWSFYNGNVLINDTLPDEISPELLSKYKEQIIQGFYWAVKEGPLAEEPIYGVQYKLLSISVPSDVNIDVMKSQIIPLMKKACYVGLLTAIPILLEPIYEVDITVHAPLLPIVEELMKKRRGSRIYKTIKVAGTPLLEVRGQVPVIESAGFETDLRLSTNGLGMCQLYFWHKIWRKVPGDVLDKDAFIPKLKPAPINSLSRDFVMKTRRRKGISTGGFMSNDGPTLEKYISAELYAQLRENGLVP"}}, "key": {"[1]": {"biological_target": "polyoma-tagged Brr2-Δ120 (S. cerevisiae) (UniProt P32639)", "experiment": "co-IP; polyoma-tagged Brr2 immunoprecipitated with an anti-polyoma antibody from yeast whole cell lysate; associated proteins by Western blot"}, "[2]": {"biological_target": "polyoma-tagged WT Brr2 (S. cerevisiae) (UniProt P32639)", "experiment": "co-IP; polyoma-tagged Brr2 immunoprecipitated with an anti-polyoma antibody from yeast whole cell lysate; associated proteins by Western blot"}}, "note": "These are yes or no findings as the source states them, for the method shown. Binding seen in cells or lysates may run through a third protein. Some results given as binding are weak or reduced against the parent protein; the word gives no strength.", "data": [{"binder": "B1", "values": [{"measurement": "binding", "setting": "[1]", "result": "binds"}, {"measurement": "binding", "setting": "[2]", "result": "binds"}]}]}
